2 substances from patent US20230364262A1 (SYNAFFIX B.V., priority 2020, published 2023) can be followed below.

The series can be described thus: peptide synthesis. As to conditions: conjugation step.

Turning to Arylazide-PEG11-LPETGG, the conjugation yield amounted to 59%.

On to BCN-PEG12-LPETGG, for which the conjugation yield was determined as 63%.
